In assay [1] the target is T1, FLAG-tagged SNAI2 (UniProt O43623).
T1 sequence: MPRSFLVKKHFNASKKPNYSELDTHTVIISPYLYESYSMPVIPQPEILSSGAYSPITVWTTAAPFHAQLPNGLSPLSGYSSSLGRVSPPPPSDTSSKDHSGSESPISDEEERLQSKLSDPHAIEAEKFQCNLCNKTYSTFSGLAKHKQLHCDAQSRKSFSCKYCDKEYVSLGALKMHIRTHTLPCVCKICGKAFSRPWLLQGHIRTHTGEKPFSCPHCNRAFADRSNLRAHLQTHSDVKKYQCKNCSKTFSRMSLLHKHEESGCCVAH
As to the kind of experiment: affinity purification with mass spectrometry; whole-cell extracts from RD cells stably expressing FLAG-SNAI2 purified on an anti-FLAG affinity column; SDS-PAGE, silver staining; bands analysed by mass spectrometry.

Chains of the proteins cited; added tags and fusions are not shown.
UniProt Q93009: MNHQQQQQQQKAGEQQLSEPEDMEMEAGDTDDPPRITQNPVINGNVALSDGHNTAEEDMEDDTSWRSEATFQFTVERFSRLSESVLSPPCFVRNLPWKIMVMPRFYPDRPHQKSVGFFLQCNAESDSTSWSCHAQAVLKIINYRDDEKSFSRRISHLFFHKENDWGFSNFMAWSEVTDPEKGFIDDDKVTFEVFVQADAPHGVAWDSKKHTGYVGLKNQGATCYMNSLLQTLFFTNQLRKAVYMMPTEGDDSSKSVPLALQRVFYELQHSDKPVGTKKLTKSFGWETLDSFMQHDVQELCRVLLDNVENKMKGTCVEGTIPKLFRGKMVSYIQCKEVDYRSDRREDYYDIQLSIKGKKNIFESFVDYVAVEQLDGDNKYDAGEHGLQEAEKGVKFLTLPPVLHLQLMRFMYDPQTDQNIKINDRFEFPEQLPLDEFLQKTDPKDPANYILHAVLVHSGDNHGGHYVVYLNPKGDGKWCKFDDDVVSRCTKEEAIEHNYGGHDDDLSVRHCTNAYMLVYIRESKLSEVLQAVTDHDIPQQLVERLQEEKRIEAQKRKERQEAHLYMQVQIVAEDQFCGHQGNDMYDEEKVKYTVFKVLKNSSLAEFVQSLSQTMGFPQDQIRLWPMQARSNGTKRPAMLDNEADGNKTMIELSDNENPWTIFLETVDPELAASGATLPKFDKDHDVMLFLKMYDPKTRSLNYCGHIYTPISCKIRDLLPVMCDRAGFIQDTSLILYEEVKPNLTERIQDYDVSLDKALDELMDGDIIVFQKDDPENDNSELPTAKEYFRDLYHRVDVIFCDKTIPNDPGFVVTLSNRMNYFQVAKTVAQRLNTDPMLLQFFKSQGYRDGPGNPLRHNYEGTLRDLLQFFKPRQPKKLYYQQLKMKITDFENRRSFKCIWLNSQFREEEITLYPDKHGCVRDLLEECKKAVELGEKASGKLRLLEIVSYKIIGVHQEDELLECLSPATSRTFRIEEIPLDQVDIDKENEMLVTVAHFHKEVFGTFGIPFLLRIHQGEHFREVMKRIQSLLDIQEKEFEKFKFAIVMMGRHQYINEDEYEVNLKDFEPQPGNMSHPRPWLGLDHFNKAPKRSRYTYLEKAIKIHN
UniProt P19474: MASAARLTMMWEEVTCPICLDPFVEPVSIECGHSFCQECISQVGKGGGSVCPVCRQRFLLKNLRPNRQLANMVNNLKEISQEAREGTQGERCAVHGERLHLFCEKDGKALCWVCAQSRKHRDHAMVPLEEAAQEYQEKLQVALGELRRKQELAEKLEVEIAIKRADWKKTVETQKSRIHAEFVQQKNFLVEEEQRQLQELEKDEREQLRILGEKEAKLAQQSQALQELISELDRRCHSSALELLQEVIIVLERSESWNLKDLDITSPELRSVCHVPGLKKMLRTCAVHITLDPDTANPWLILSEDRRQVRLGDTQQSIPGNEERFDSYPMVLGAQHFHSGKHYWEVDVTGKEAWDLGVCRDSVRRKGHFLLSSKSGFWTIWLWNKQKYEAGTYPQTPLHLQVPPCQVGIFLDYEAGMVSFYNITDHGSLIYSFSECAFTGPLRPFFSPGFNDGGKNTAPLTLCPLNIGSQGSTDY

Assay [2] has as its target Ubiquitin-specific protease 7 (human (endogenous in RD and A204)) (UniProt Q93009). As to the kind of experiment: affinity purification with mass spectrometry; USP7-co-IPed protein complex analysed by mass spectrometry (Fig. S4A); cells and antibody not stated.

Results are given in words; binding and its absence hold for the method and conditions named. Binding seen in cells or lysates may run through a third protein. A yes stands for co-enrichment or nearness to the bait. Other partners may have been found. For part of these data: Sequences can lack the tags named with a protein.

Take “E3 ubiquitin ligase TRIM21 (from UniProt P19474 1-475) (enzyme)”: the binding entry in assay [1] and in assay [2] was “binds” throughout.

Take “Ubiquitin-specific protease 7 (from UniProt Q93009 1-1102) (enzyme)”: the binding result in assay [1] is given as “binds”.

The values above are taken from article PMC11069146.
